At least one compound was matched to its structure with a doubt left.
Test system: C57BL/6 mice
Test: In vivo evaluation in mice fed a high-fat diet (84-day study)
Parameters: species or system mouse
Conditions: end of the study, vs HFD control cohort, p<0.05
Procedure: Animals were allowed free access to food and drinking water for the entire study. Animals were weighed on a regular basis, and food and drinking water consumption monitored. Plasma and stool samples were collected at the beginning of the study and 42 days into the study. Additional blood was drawn from fasted mice 58 days into the study. Insulin tolerance tests were performed 72 or 73 days into the study. Following an approximate 4 h fast, 0.5 Units/kg insulin was administered intraperitoneally. Blood was collected pre-insulin challenge (t=0) and at t=15, 30, 60, 90, and 120 min following insulin challenge. Oral glucose tolerance tests were performed 79 or 80 days into the study. Following an approximate 4 h fast, 2 g/kg glucose was administered by oral gavage. Blood was collected pre-insulin challenge (t=0) and at t=15, 30, 60, 90, and 120 min following glucose challenge. At the end of the study, body weight, food consumption, blood glucose, serum ALT levels, serum AST levels, serum cholesterol (total cholesterol. HDL, and LDL levels), serum triglycerides levels, liver triglyceride levels, liver cholesterol levels, liver weight, subcutaneous fat pad weight, and epididymal fat pad weight were measured in all mice.

CC(=O)Oc1ccc(/C=C/C(=O)O)cc1OC(C)=O [compound 3, diacetyl caffeic acid]
fat accumulation (subcutaneous and epididymal fat pad weights): significantly less

— patent publication US20220296555A1, “ACYLATED ACTIVE AGENTS AND METHODS OF THEIR USE FOR THE TREATMENT OF METABOLIC DISORDERS AND NONALCOHOLIC FATTY LIVER DISEASE” (Flagship Pioneering Innovations V, Inc., priority 2019, published 2022)
